Data from the supplement of paper PMC12067093, “Discovery and optimisation of a covalent ligand for TRIM25 and its application to targeted protein ubiquitination” (Chemical Science, 2025).
This is one part of the list.

Compound: Cc1cc(ccc1-c1ccccc1)C(=O)N1CCCN(CC1)C(=O)CCl [compound 10]
Experiment: probe-labelled cysteine peptide fold change vs DMSO (competition) (log2 fold change); higher = less target engagement (more negative = stronger competition)
Conditions: THP-1, incubation time: 4 h
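Also: competitive profiling in live THP-1 cells: cysteine peptides tagged with an iodoacetamide desthiobiotin (IA-DTB) probe, intensity after compound treatment relative to DMSO-treated cells.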

Row | Target | probe-labelled cysteine peptide fold change (10 µM) | probe-labelled cysteine peptide fold change (50 µM)
1 | NANP_Q8TBE9_49_EEAEIICDK (UniProt Q8TBE9) | 0.0178 | 0.356
2 | NAPA_P54920_212_AALCHFCIDMLNAK (UniProt P54920) | 0.0526 | 0.0407
3 | NAPRT_Q6XQN6_101_ALDCSEVTVR (UniProt Q6XQN6) | 0.0272 | 0.124
4 | NAE1_Q13564_460_SCLTGFLQEYGLSVMVK (UniProt Q13564) | 0.161 | 0.442
5 | NBN_O60934_478_ERDEENQEMSSCK (UniProt O60934) | -0.438 | -0.348
6 | NCAPD3_P42695_760_ISSQQNPNSNTLGHILCVIGHIAK (UniProt P42695) | -0.174 | -0.0655
7 | MYOF_Q9NZM1_1392_KPVVGQCTIER (UniProt Q9NZM1) | -0.0854 | -0.147
8 | MYO6_Q9UM54_610_NNDALHMSLESLICESR (UniProt Q9UM54) | 0.0623 | -0.198
9 | MZF1_P28698_323_SEQDPTDEDPCR (UniProt P28698) | -0.0388 | 0.0171
10 | NANS_Q9NR45_184_PLNPNFCFLQCTSAYPLQPEDVNLR (UniProt Q9NR45) | 0.154 | 0.204
11 | MYO18A_Q92614_1699_NQLEESEFTCAAAVK (UniProt Q92614) | -0.177 | -0.086
12 | NCAPD3_P42695_361_ILLQHICAK (UniProt P42695) | -0.282 | 0.389
13 | MYO1F_O00160_101+105_NMLIDCENQCVIISGESGAGK (UniProt O00160) | 0.148 | -0.228
14 | NAPA_P54920_84_HDAATCFVDAGNAFK (UniProt P54920) | 0.108 | 0.0794
15 | NARS_O43776_359_LEDLVCDVVDR (UniProt O43776) | 0.394 | 0.672
16 | NAIP_Q13075_124_FHPDCGFLLNK (UniProt Q13075) | -0.0445 | -0.19
17 | MYO18A_Q92614_1155_RAVEELLECLDLEK (UniProt Q92614) | 0.216 | 0.133
18 | NBEAL2_Q6ZNJ1_1491_GQVFSVLTQLGASATLVRPPDCIKR (UniProt Q6ZNJ1) | -0.22 | -0.189
19 | MYOF_Q9NZM1_409_KVCTNIIEK (UniProt Q9NZM1) | -0.176 | -0.0115
20 | MYO1F_O00160_807_GQVCEVLK (UniProt O00160) | -0.113 | 0.0323
21 | NASP_P49321_568_LGEVSVESENYVQAVEEFQSCLNLQEQYLEAHDR (UniProt P49321) | 0.0149 | 0.425

Rewritten as tab-separated lines: entries from further up
Row	Target	probe-labelled cysteine peptide fold change (10 µM)	probe-labelled cysteine peptide fold change (50 µM)
9	MZF1_P28698_323_SEQDPTDEDPCR (UniProt P28698)	-0.0388	0.0171
10	NANS_Q9NR45_184_PLNPNFCFLQCTSAYPLQPEDVNLR (UniProt Q9NR45)	0.154	0.204

Remaining list, next part:

Row | Target | probe-labelled cysteine peptide fold change (10 µM) | probe-labelled cysteine peptide fold change (50 µM)
22 | NASP_P49321_84_YGETANECGEAFFFYGK (UniProt P49321) | 0.193 | 0.457
23 | NCALD_P61601_38_DCPSGHLSMEEFKK (UniProt P61601) | 0.362 | -0.0319
24 | MYOF_Q9NZM1_1660_FGSHCGIPEEYCVSGVNTWR (UniProt Q9NZM1) | -0.193 | 0.0243
25 | NAPA_P54920_66_NWSAAGNAFCQAAQLHLQLQSK (UniProt P54920) | 0.0996 | -0.00462
26 | NAA50_Q9GZZ1_79_LYIMTLGCLAPYR (UniProt Q9GZZ1) | -0.029 | 0.141
27 | NBN_O60934_323_NYCDPQGHPSTGLK (UniProt O60934) | 0.0867 | 0.00867
28 | MYO1G_B0I1T2_97_SRDTCIVISGESGAGK (UniProt B0I1T2) | -0.0723 | -0.0978
29 | NASP_P49321_708_KPTDGASSSNCVTDISHLVR (UniProt P49321) | -0.0522 | -0.111
30 | NCAPG2_Q86XI2_776_ECLLSAPR (UniProt Q86XI2) | 0.195 | -0.122
31 | NANS_Q9NR45_46_ECGADCAK (UniProt Q9NR45) | 0.204 | -0.0313
32 | NADK2_Q4G0N4_193_LKPVIGVNTDPERSEGHLCLPVR (UniProt Q4G0N4) | -0.0613 | 0.021
33 | MYO1F_O00160_856_TEFVSLLCK (UniProt O00160) | 0.083 | 0.109
34 | MYO18A_Q92614_404_ANAPSCDR (UniProt Q92614) | -0.127 | 0.317
35 | NCAPH_Q15003_255_TAASFDECSTAGVFLSTLHCQDYR (UniProt Q15003) | -0.0675 | -0.288
36 | NAA25_Q14CX7_235_CMAMYK (UniProt Q14CX7) | -0.242 | -0.0999
37 | NAA16_Q6N069_82_SHVCWHVYGLLQR (UniProt Q6N069) | -0.196 | 0.182
38 | NAPA_P54920_103_KADPQEAINCLMR (UniProt P54920) | 0.277 | 0.121
39 | NCAPG_Q9BPX3_509_EALENCITLQDFNR (UniProt Q9BPX3) | 0.192 | 0.18
40 | NAP1L4_Q99733_247_ADPFSFEGPEIVDCDGCTIDWKK (UniProt Q99733) | 0.089 | 0.0132
41 | NCAM2_O15394_42_FFTCTAIGEPESIDWYNPQGEK (UniProt O15394) | 0.0886 | 0.13
